Part of at least one peptide drawing is inferred or uncertain, most often the ends. Where a SMILES comes first, the peptide text is derived from it. [ ]: non-standard residue; d: D form. pY = N[C@@H](Cc1ccc(OP(=O)(O)O)cc1)C(=O)O
What was measured:
[1] = test system: IL-4; experiment: Ovalbumin-induced IL-4 production by splenocytes from ovalbumin-sensitized mice (ELISA); assay type: cell-based, BALB/c mice; conditions: ovalbumin 100 μg/mL + 100 μM peptide added daily, four days; ovalbumin alone 309.3 ± 49.6
Description: (§1) Splenocytes from ovalbumin-sensitized mice were cultured for four days with no antigen, with ovalbumin alone, or with ovalbumin plus the STAT-6-IP or a STAT-6 Tyr-641 mutant (STAT-6-CP; Tyr-Ala-Arg-Ala-Ala-Ala-Arg-Gln-Ala-Arg-Ala-Gly-Arg-Gly-Phe-Val-Ser-Thr-Thr; SEQ ID NO:8). The STAT-6-IP and STAT-6-CP were added to splenocyte cultures daily. Treatment with the STAT-6-IP, but not the STAT-6-CP, reduced the supernatant levels of both IL-4 and IL-13 (Table 3).
(§2) BALB/c mice were sensitized systemically by two weekly i.p. injections of 0.025% ovalbumin mixed with 4 mg/mL Al(OH)3. One week after the second sensitization, mice were sacrificed and spleens harvested. A single cell suspension of splenocytes (5×10^6 cells/mL) was cultured in RPMI-1640 medium containing 10% heat-inactivated fetal bovine serum and 2 mM L-glutamine, 50 μM 2-mercaptoethanol, 100 U/mL penicillin, and 100 μg/mL streptomycin sulfate. Splenocytes were cultured for four days in the presence or absence of 100 μg/mL ovalbumin, either alone or with 100 μM STAT-6-IP or STAT-6-CP, which were added daily. After four days, culture supernatants were harvested to quantify cytokine production by ELISA. […] Cytokine expression was monitored by flow cytometry and analyzed using CELLQUEST™ software (Becton Dickinson). […]

[2] = test system: ovalbumin-sensitized mice; experiment: Airway hyperresponsiveness to methacholine (respiratory system resistance, FlexiVent); assay type: in vivo, BALB/c mice
Description: (§3) Six-to-eight week-old male BALB/c mice were obtained from Harlan-Sprague Dawley (Indianapolis, Ind.) and were housed in a conventional animal facility. For each experimental condition, a minimum of 6-8 animals was used. Awake animals were sensitized five days per week for each of two weeks by instillation in each nostril of 5 μL 1% ovalbumin in PBS. Alternatively, animals were sensitized by two weekly systemic, i.p. injections of 0.025% ovalbumin mixed with 4 mg/mL Al(OH)3. Following two weeks rest, animals were challenged for five days by intranasal instillation of 1% ovalbumin. Animals treated with peptides received the STAT-6-IP (15, 50, or 150 μg) or STAT-6-CP (50 or 150 μg) in 10 μL PBS 30 minutes prior to each ovalbumin challenge. Twenty-four hours after the last ovalbumin challenge, mice were deeply anaesthetized with xylazine and sodium pentobarbital and paralyzed with pancuronium bromide. The tail vein was cannulated for drug administration and heart rate was monitored by EKG. The trachea was exposed, a cannula inserted and secured with silk ties and then attached to a computer-controlled small-animal ventilator (FlexiVent; SCIREQ, Montreal, Quebec). Mice were ventilated quasi-sinusoidally with a tidal volume of 8 mL/kg and respiratory rate of 150 breaths/minute. Respiratory system resistance was measured. Airway hyperresponsiveness was by low dose methacholine. Methacholine was injected through the tail vein at dose of 10, 20, 40, 80, 160, 320 μg/kg and the maximal resistance and elastance were recorded. Afterward, the trachea was isolated and a 22-gauge stainless steel catheter was inserted into the proximal trachea and secured with 4-0 silk suture. The lungs were lavaged using 0.5 mL of ice cold 0.9% NaCl. The bronchoalveolar lavage (BAL) fluid was centrifuged to remove intact cells and the supernatant stored at −20° C. for IL-13 analysis by ELISA. Red blood cells (RBC) in the BAL fluid cell pellet were lysed and cells were spun onto glass slides, stained using Diff-quick (Fisher Scientific, Ottawa, Canada), and differential cell counts obtained manually under light microscopy. Six fields were counted, each encompassing 100 cells per slide, and means obtained.

[3] = test system: IL-4 mRNA; experiment: Semiquantitative RT-PCR of IL-4 mRNA in splenocytes; assay type: cell-based, BALB/c mice; conditions: splenocytes cultured with ovalbumin plus peptide
[4] = test system: CD4+ lymphocytes expressing IL-4; experiment: Intracellular cytokine staining of CD4+ T cells producing IL-4 (flow cytometry); assay type: cell-based, BALB/c mice; conditions: ovalbumin + 100 μM peptide, ovalbumin alone 90.21 ± 8.02
Description: (§4) The levels of mRNA encoding IL-4, IL-13 and IFN-gamma were also evaluated by semiquantitative RT-PCR analysis. Ovalbumin-induced expression of both IL-4 and IL-13 mRNA was inhibited in splenocytes cultured with the STAT-6-IP and not the STAT-6-CP. […] The number of CD4+ T cells producing IL-4 was also quantified by intracellular cytokine staining. When splenocytes from ovalbumin-sensitized mice were cultured with ovalbumin, there was a significant increase in the number of CD4+ lymphocytes expressing IL-4 (Table 4). The increase in IL-4 expression was abrogated in splenocytes cultured with ovalbumin in the presence of the STAT-6-IP, while the STAT-6-CP had no effect.
as §2, with “Splenocytes were cultured for four days in the presence or absence of 100 μg/mL ovalbumin, either alone or with 100 μM STAT-6-IP or STAT-6-CP, which were added daily.” left out

[5] = test system: IFN-gamma mRNA; experiment: Semiquantitative RT-PCR of IFN-gamma mRNA in splenocytes; assay type: cell-based, BALB/c mice; conditions: splenocytes cultured with ovalbumin plus peptide
Description: as §4
(§5) Reverse transcriptase (RT)-PCR was used to monitor expression of mRNAs encoding IL-4, IL-13 and IFN-gamma. Materials for RNA extraction and RT-PCR were purchased from INVITROGEN™ Canada (Burlington, Ontario). Total RNA was extracted from splenocytes, treated with DNAse, and 1 μg of RNA was reverse transcribed into cDNA using SUPERSCRIPT™ II reverse transcriptase. […] PCR products were resolved by gel electrophoresis and visualized and quantified on a FLUORCHEM™ 8000 Imaging System (Alpha Innotech, San Leandro, Calif.) using ALPHAEASE™ software (Alpha Innotech). […]

[6] = test system: IL-13 mRNA; experiment: Semiquantitative RT-PCR of IL-13 mRNA in splenocytes; assay type: cell-based, BALB/c mice; conditions: splenocytes cultured with ovalbumin plus peptide
Description: as §4, §5

[7] = test system: ovalbumin-sensitized mice; experiment: Allergen-induced accumulation of granulocytes in bronchoalveolar lavage (BAL) fluid; assay type: in vivo, BALB/c mice
Source text: In the combined allergic rhinitis and asthma model, non-anaesthetized mice are locally sensitized with ovalbumin intranasally (i.n.), the primary route of allergen exposure in man (McCusker, et al. (2002) supra). Normal saline was used as a control. In both models sensitized mice produce ovalbumin-specific IgE and upon i.n. ovalbumin challenge, develop inflammation and eosinophilia in both the upper and lower airways as well as IL-13-dependent airway hyperresponsiveness (McCusker, et al. (2002) supra; Wang and McCusker (2005) Clin. Exp. Allergy 35(8):1104-11). Thus, in each model of allergic airway disease, the STAT-6-IP or control STAT-6-CP was given locally, i.n., to non-anaesthetized, ovalbumin-sensitized mice prior to each of five daily allergen challenges. Consistent with its ability to inhibit STAT-6-dependent activity in vitro, the STAT-6-IP inhibited allergen-induced accumulation of granulocytes in the lung, quantified in bronchoalveolar lavage (BAL) fluid, independent of the site of sensitization (Table 5).
as §3

[8] = test system: IL-13; experiment: Ovalbumin-induced IL-13 production by splenocytes from ovalbumin-sensitized mice (ELISA); assay type: cell-based, BALB/c mice; conditions: ovalbumin 100 μg/mL + 100 μM peptide added daily, four days; ovalbumin alone 2585.4 ± 165.7
Description: as §1, §2

[9] = test system: IL-13; experiment: IL-13 in the BAL fluid (ELISA); assay type: in vivo, BALB/c mice; conditions: ovalbumin control 84.95, normal saline 55.67
Description: as §3, with “Red blood cells (RBC) in the BAL fluid cell pellet were lysed and cells were spun onto glass slides, stained using Diff-quick (Fisher Scientific, Ottawa, Canada), and differential cell counts obtained manually under light microscopy.” left out

[10] = test system: ovalbumin-sensitized mice; experiment: Histology of lungs; assay type: in vivo, BALB/c mice; conditions: compared with ovalbumin-sensitized and -challenged animals
Description: Histology was performed according to established methods (McCusker, et al. (2002) supra). Briefly, lungs were slowly inflated with 1 mL of formalin, isolated, and placed entirely in formalin. The specimens were embedded in paraffin and […] sections prepared. Slides were stained with Giemsa and examined under standard light microscopy.

[11] = test system: IFN-gamma; experiment: Ovalbumin-induced IFN-gamma production by splenocytes from ovalbumin-sensitized mice (ELISA); assay type: cell-based, BALB/c mice; conditions: ovalbumin 100 μg/mL + 100 μM peptide added daily, four days; ovalbumin alone 567.9 ± 93.1
Description: as §1, §2

CC(C)[C@H](NC(=O)[C@H](Cc1ccc(OP(=O)(O)O)cc1)NC(=O)CNC(=O)[C@H](CCCNC(=N)N)NC(=O)CNC(=O)[C@H](C)NC(=O)[C@H](CCCNC(=N)N)NC(=O)[C@H](C)NC(=O)[C@H](CCC(N)=O)NC(=O)[C@H](CCCNC(=N)N)NC(=O)[C@H](C)NC(=O)[C@H](C)NC(=O)[C@H](C)NC(=O)[C@H](CCCNC(=N)N)NC(=O)[C@H](C)NC(=O)[C@@H](N)Cc1ccc(O)cc1)C(=O)N[C@@H](CO)C(=O)N[C@H](C(=O)N[C@H](C(=O)O)[C@@H](C)O)[C@@H](C)O [STAT-6-IP, Tyr-Ala-Arg-Ala-Ala-Ala-Arg-Gln-Ala-Arg-Ala-Gly-Arg-Gly-Tyr*-Val-Ser-Thr-Thr] (H-YARAAARQARAGRG[pY]VSTT-OH; N-terminus and C-terminus assumed)
IL-4 (pg/mL ± SEM), culture supernatant [1]: 111.6 ± 22.7 pg/mL
Response Rmax (cm H2O × s/mL ± SEM) ([2]; dose response, 15 μg peptide, ovalbumin control 2.02, normal saline 1.41): 1.65 (±0.08) cm H2O × s/mL
Response Rmax (cm H2O × s/mL ± SEM) ([2]; dose response, 50 μg peptide, ovalbumin control 2.02, normal saline 1.41): 1.50 (±0.10) cm H2O × s/mL
Response Rmax (cm H2O × s/mL ± SEM) ([2]; dose response, 150 μg peptide, ovalbumin control 2.02, normal saline 1.41): 1.37 (±0.04) cm H2O × s/mL
Response Rmax (cm H2O × s/mL ± SEM) ([2]; i.n. ovalbumin sensitization, 50 microgram peptide, ovalbumin control 1.92, normal saline 1.19): 1.57 ± 0.06 cm H2O × s/mL
Response Rmax (cm H2O × s/mL ± SEM) ([2]; i.p. ovalbumin sensitization, 50 microgram peptide, ovalbumin control 1.87, normal saline 1.19): 1.44 ± 0.09 cm H2O × s/mL
Inhibition of ovalbumin-induced expression of IL-4 mRNA [3]: inhibited
Percentage of IL4 positive cells ± SEM [4]: 36.01 ± 7.85 Percentage
Expression of IFN-gamma mRNA [5]: did not change
Inhibition of ovalbumin-induced expression of IL-13 mRNA [6]: inhibited
Granulocytes/100 counted from BAL (±SEM) ([7]; dose response, 15 μg peptide, ovalbumin control 22.33, normal saline 5.00): 24.00 ± 0.52 Granulocytes/100 counted
Granulocytes/100 counted from BAL (±SEM) ([7]; dose response, 50 μg peptide, ovalbumin control 22.33, normal saline 5.00): 13.72 ± 1.38 Granulocytes/100 counted
Granulocytes/100 counted from BAL (±SEM) ([7]; dose response, 150 μg peptide, ovalbumin control 22.33, normal saline 5.00): 10.71 ± 0.80 Granulocytes/100 counted
Granulocytes/100 counted from BAL (±SEM) ([7]; i.n. ovalbumin sensitization, 50 microgram peptide i.n. prior to each ovalbumin challenge, ovalbumin control 26.73): 12.57 (±0.54) Granulocytes/100 counted
Granulocytes/100 counted from BAL (±SEM) ([7]; i.p. ovalbumin sensitization, 50 microgram peptide i.n. prior to each ovalbumin challenge, ovalbumin control 37.57): 19.63 (±0.97) Granulocytes/100 counted
IL-13 (pg/mL ± SEM), culture supernatant [8]: 1630.3 ± 171.4 pg/mL
IL-13, pg/mL (±SEM), BAL fluid ([9]; 15 μg peptide prior to each ovalbumin challenge): 63.60 (±12.11) pg/mL
IL-13, pg/mL (±SEM), BAL fluid ([9]; 50 μg peptide prior to each ovalbumin challenge): 39.55 (±7.18) pg/mL
IL-13, pg/mL (±SEM), BAL fluid ([9]; 150 μg peptide prior to each ovalbumin challenge): 33.55 (±1.02) pg/mL
Ovalbumin-induced lung inflammation, including airway eosinophilia (histology) [10]: reduced
IFN-gamma (pg/mL ± SEM), culture supernatant [11]: 503.4 ± 155.1 pg/mL

Source: patent US7829528B2, “Compositions and methods for treating STAT-6 associated diseases or conditions” (The Rockefeller University, priority 2004, dated 2010)
